Measurements reported in patent US20220304349A1, “Steviol Glycoside Compositions for Oral Ingestion or Use” (CARGILL, Incorporated, priority 2016, published 2022).

System: UGT 76G1 and EUGT11
Test: Bioconversion of steviol glycosides with crude UGT enzyme preparations expressed in E. coli, LC-UV analysis
Assay type: biochemical
Conditions: 2 mM substrate fed, overnight at 30° C.
Description: The wildtype genes for UGTs EUGT11 and 76G1 are cloned individually into E. coli XjB-autolysis BL21(DE3) cells using the pET30 vector system from Novagen (EMD4 Biosciences, Madison, Wis.). All vectors use an IPTG-inducible promoter. Plasmid DNA is transformed into chemically competent cells as described by the vendor.
For in vitro assays, transformants displaying the desired antibiotic resistance are grown overnight at 30° C. in 2 mL cultures using NZCYM-media and antibiotic. The following day, the cultures are induced to a final concentration of 0.3 mM IPTG and 3 mM arabinose, and grown for 24 h at 20° C. The cells are then harvested by centrifugation at 4000 rpm for […] and resuspended in 200 μL GT-buffer (RBC Bioscience) and 3 tablets/100 ml of Complete mini, protease inhibitor (Roche), transferred to Eppendorf tubes, vortexed and frozen at −80° C. for 1.5 hour. Cells are thawed on ice, and left at room temperature for 3 minutes. When approximately half-way thawed, 15 μl of 0.14 mg/ml H2O DNase solution+30 μl 0.05M MgCl2 is added to each tube and the samples are incubated for approximately 5 minutes at room temperature. The cells are centrifuged at maximum speed for 5 minutes. One-hundred μL of supernatant (lysate) is transferred to fresh microfuge tubes, and 100 μL of glycerol is added.
Bioconversions are performed in a sealed vial with 0.05 M phosphate buffer, pH=7.0, 3 mM of MgCl2, 4 mM UDP-glucose (disodium salt, Calbiochem, 10× stock solution is prepared in 0.05 M phosphate buffer, pH=7.0), 2 mM substrate (10× rebaudioside A stock solution is prepared in 0.05 M phosphate buffer, pH=7.0, or 10× rebaudioside D stock solution is prepared in 60% DMSO, or other glycosides), and 5-10 μL of the crude enzyme preparations described above. Various starting steviol glycosides are incubated with UGT 76G1 and EUGT11 overnight at 30° C. Following centrifugation at 4000 rpm for 5 minutes, 20 μL samples are diluted with 180 μL water. The samples are then subjected to LC-UV analysis.

[1] = Mix of 2 crude UGT preparations

Row | Structure (SMILES) | Products [1] | Products (UGT clone EUGT11)
1 | C=C1C[C@@]23CC[C@H]4[C@@](C)(CCC[C@@]4(C)C(=O)O[C@@H]4O[C@H](CO)[C@@H](O)[C@H](O)[C@H]4O)[C@@H]2CC[C@]1(O[C@@H]1O[C@H](CO)[C@@H](O)[C@H](O[C@@H]2O[C@H](CO)[C@@H](O)[C@H](O)[C@H]2O)[C@H]1O[C@@H]1O[C@H](CO)[C@@H](O)[C@H](O)[C@H]1O)C3 [Reb A, rebaudioside A] | Various steviol glycoside | Rebaudioside D, various
2 | C=C1C[C@@]23CC[C@H]4[C@@](C)(CCC[C@@]4(C)C(=O)O[C@@H]4O[C@H](CO)[C@@H](O)[C@H](O)[C@H]4O[C@@H]4O[C@H](CO)[C@@H](O)[C@H](O)[C@H]4O)[C@@H]2CC[C@]1(O[C@@H]1O[C@H](CO)[C@@H](O)[C@H](O[C@@H]2O[C@H](CO)[C@@H](O)[C@H](O)[C@H]2O)[C@H]1O[C@@H]1O[C@H](CO)[C@@H](O)[C@H](O)[C@H]1O)C3 [Reb D, rebaudioside D] | Various steviol glycoside | 
